From the supplement of paper PMC9454738
Where a name gives a salt, the structure may show the parent alone. This is one part of the list. Repeats in this data set agree poorly, so a single value says little.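 Assays used MDA-MB-231 triple-negative breast cancer cells and their brain-metastatic line MDA-MB-231BRM, stably carrying empty vector, full-length GLI1 or truncated tGLI1. After 48 h, viability was read with CellTiter-Blue and normalized to 1% DMSO vehicle. tGLI1 selectivity meant viability fell 20% more in tGLI1 cells than in vector and GLI1 cells.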

What was measured:
Assay in all cases: cell viability relative to vehicle (DMSO) control (fraction); higher = more viable cells (less growth inhibition)
Details in all cases: treatment time 48 h
MDA-MB-231 GLI1 = tested on: MDA-MB-231 GLI1
MDA-MB-231 Vector = tested on: MDA-MB-231 Vector
MDA-MB-231 tGLI1 = tested on: MDA-MB-231 tGLI1
MDA-MB-231BRM GLI1 = tested on: MDA-MB-231BRM GLI1
MDA-MB-231BRM Vector = tested on: MDA-MB-231BRM Vector
MDA-MB-231BRM tGLI1 = tested on: MDA-MB-231BRM tGLI1

Structure (SMILES) | cell viability (MDA-MB-231 GLI1; 0.05 µM) | cell viability (MDA-MB-231 GLI1; 0.5 µM) | cell viability (MDA-MB-231 GLI1; 5 µM) | cell viability (MDA-MB-231 Vector; 0.05 µM) | cell viability (MDA-MB-231 Vector; 0.5 µM) | cell viability (MDA-MB-231 Vector; 5 µM) | cell viability (MDA-MB-231 tGLI1; 0.05 µM) | cell viability (MDA-MB-231 tGLI1; 0.5 µM) | cell viability (MDA-MB-231 tGLI1; 5 µM) | cell viability (MDA-MB-231BRM GLI1; 0.05 µM) | cell viability (MDA-MB-231BRM GLI1; 0.5 µM) | cell viability (MDA-MB-231BRM GLI1; 5 µM) | cell viability (MDA-MB-231BRM Vector; 0.05 µM) | cell viability (MDA-MB-231BRM Vector; 0.5 µM) | cell viability (MDA-MB-231BRM Vector; 5 µM) | cell viability (MDA-MB-231BRM tGLI1; 0.05 µM) | cell viability (MDA-MB-231BRM tGLI1; 0.5 µM) | cell viability (MDA-MB-231BRM tGLI1; 5 µM)
C=CC(=O)Nc1ccc2ncnc(Nc3cccc(Br)c3)c2c1 | 1.3 | 1.48 | 0.571 | 1.36 | 1.37 | 0.704 | 1.52 | 1.37 | 0.658 | 1.01 | 0.939 | 0.936 | 1.1 | 1.02 | 0.962 | 0.953 | 0.926 | 0.851
CN1CCN(CCOc2cc(OC3CCOCC3)c3c(Nc4c(Cl)ccc5c4OCO5)ncnc3c2)CC1 [Saracatinib (AZD0530)] | 1.09 | 1.31 | 0.617 | 1.02 | 0.912 | 0.447 | 0.803 | 1.09 | 0.475 | 0.866 | 0.863 | 0.887 | 0.798 | 0.826 | 0.869 | 0.926 | 0.853 | 0.756
CN(C)/N=N/c1[nH]cnc1C(N)=O [Dacarbazine (DTIC-Dome)] | 1.31 | 1.04 | 0.974 | 0.836 | 1.19 | 1.11 | 1.08 | 1.06 | 0.982 | 1.05 | 1.05 | 0.955 | 1.02 | 0.995 | 0.985 | 0.988 | 0.999 | 1.02
CC#CC(=O)N1CC[C@@H](n2c(=O)n(-c3ccc(Oc4ccccc4)cc3)c3c(N)ncnc32)C1 | 2.13 | 3.03 | 1.77 | 1.26 | 1.13 | 1.14 | 1.35 | 1.47 | 1.27 | 0.787 | 0.798 | 0.615 | 0.868 | 0.714 | 0.699 | 1.1 | 1.05 | 1.08
C[C@]12C=CC(=O)N[C@@H]1CC[C@@H]1[C@@H]2CC[C@]2(C)[C@@H](C(=O)Nc3cc(C(F)(F)F)ccc3C(F)(F)F)CC[C@@H]12 [Dutasteride] | 1.04 | 1.05 | 1.02 | 0.894 | 1.12 | 1.08 | 1.14 | 1.03 | 0.914 | 1.01 | 1.01 | 0.988 | 1.03 | 0.987 | 0.948 | 1.11 | 1.02 | 0.939
Cc1ccc(Nc2nccc(N(C)c3ccc4c(C)n(C)nc4c3)n2)cc1S(N)(=O)=O | 1.43 | 1.87 | 1.71 | 1.48 | 1.24 | 1.14 | 1.19 | 1.52 | 1.02 | 0.899 | 0.959 | 0.972 | 0.882 | 0.929 | 0.94 | 0.919 | 0.877 | 0.959
FC(F)(F)c1ccc(/C=C/c2nc(COc3ccc(CCCCn4ccnn4)cc3)co2)cc1 [Mubritinib (TAK 165)] | 1.6 | 0.861 | 1.74 | 1.15 | 1.5 | 1.66 | 1.42 | 1.46 | 1.5 | 1.28 | 1.24 | 1.03 | 0.734 | 1.17 | 1.1 | 0.645 | 1.16 | 1.06
CN(C)CCOc1ccc(-c2nc(-c3ccncc3)c(-c3ccc4c(c3)CC/C4=N\O)[nH]2)cc1 | 1.32 | 0.654 | -0.199 | 1.68 | 0.576 | -0.157 | 1.19 | 1.17 | -0.0426 | 1.12 | 1.09 | 0.547 | 0.746 | 0.703 | 0.546 | 1.06 | 0.761 | 0.294
C#Cc1cccc(Nc2ncnc3cc(OCCOC)c(OCCOC)cc23)c1 [Erlotinib HCl] | 1.33 | 1.05 | 1.17 | 1.64 | 1.41 | 1.36 | 1.35 | 1.06 | 1.27 | 1.07 | 0.93 | 0.885 | 1.02 | 0.912 | 0.854 | 1.01 | 0.983 | 0.905
CCN(CC)CCCCNc1ncc2cc(-c3cc(OC)cc(OC)c3)c(NC(=O)NC(C)(C)C)nc2n1 | 1.28 | 0.782 | 0.638 | 1.87 | 1.27 | 1.07 | 0.672 | 1.28 | 1.03 | 1.19 | 1.11 | 0.735 | 0.589 | 0.987 | 0.682 | 1.03 | 0.973 | 0.607
Cc1cnc(Nc2ccc(OCCN3CCCC3)cc2)nc1Nc1cccc(S(=O)(=O)NC(C)(C)C)c1 | 1.36 | 0.818 | 0.141 | 1.27 | 1.13 | 0.261 | 1.34 | 1 | 0.0522 | 1.07 | 0.971 | 0.347 | 1 | 0.964 | 0.405 | 1.04 | 1.01 | 0.331
CSc1cccc(Nc2ncc3cc(-c4c(Cl)cccc4Cl)c(=O)n(C)c3n2)c1 | 1.05 | 0.386 | 0.0705 | 1.08 | 0.368 | 0.134 | 1.08 | 0.459 | 0.0468 | 1.01 | 0.838 | 0.85 | 1.13 | 0.917 | 0.791 | 0.946 | 0.642 | 0.794

Complete entries, quoted from the list. Values in the order: cell viability (MDA-MB-231 GLI1; 0.05 µM) | cell viability (MDA-MB-231 GLI1; 0.5 µM) | cell viability (MDA-MB-231 GLI1; 5 µM) | cell viability (MDA-MB-231 Vector; 0.05 µM) | cell viability (MDA-MB-231 Vector; 0.5 µM) | cell viability (MDA-MB-231 Vector; 5 µM) | cell viability (MDA-MB-231 tGLI1; 0.05 µM) | cell viability (MDA-MB-231 tGLI1; 0.5 µM) | cell viability (MDA-MB-231 tGLI1; 5 µM) | cell viability (MDA-MB-231BRM GLI1; 0.05 µM) | cell viability (MDA-MB-231BRM GLI1; 0.5 µM) | cell viability (MDA-MB-231BRM GLI1; 5 µM) | cell viability (MDA-MB-231BRM Vector; 0.05 µM) | cell viability (MDA-MB-231BRM Vector; 0.5 µM) | cell viability (MDA-MB-231BRM Vector; 5 µM) | cell viability (MDA-MB-231BRM tGLI1; 0.05 µM) | cell viability (MDA-MB-231BRM tGLI1; 0.5 µM) | cell viability (MDA-MB-231BRM tGLI1; 5 µM)
`CSc1cccc(Nc2ncc3cc(-c4c(Cl)cccc4Cl)c(=O)n(C)c3n2)c1` in the list: 1.05 | 0.386 | 0.0705 | 1.08 | 0.368 | 0.134 | 1.08 | 0.459 | 0.0468 | 1.01 | 0.838 | 0.85 | 1.13 | 0.917 | 0.791 | 0.946 | 0.642 | 0.794
`CC#CC(=O)N1CC[C@@H](n2c(=O)n(-c3ccc(Oc4ccccc4)cc3)c3c(N)ncnc32)C1` in the list: 2.13 | 3.03 | 1.77 | 1.26 | 1.13 | 1.14 | 1.35 | 1.47 | 1.27 | 0.787 | 0.798 | 0.615 | 0.868 | 0.714 | 0.699 | 1.1 | 1.05 | 1.08
